Test [1] addresses Bacillus subtilis PBP2B-ΔPASTA (BACTH fusion) (Bacillus subtilis 168). In words: two-hybrid.
Test [2] has the same target. In words: two-hybrid. The source holds these as a separate data set.
Test [3] has as its target GFP-PBP2B-ΔPASTA (Bacillus subtilis). In words: co-IP.

Read-outs that look alike come from different tables or passages of the source. Results are given in words; binding and its absence hold for the method and conditions named. A result given as binding can be weak or reduced; the word gives no strength. Tags and fused reporters may be left off the sequences shown. For part of these data: Binding seen in cells or lysates may run through a third protein.

B1: Bacillus subtilis FtsL (BACTH fusion) (protein, UniProt Q07867 1-117)
chain: MSNLAYQPEKQQRHAISPEKKVIVKKRASITLGEKVLLVLFAAAVLSVSLLIVSKAYAAYQTNIEVQKLEEQISSENKQIGDLEKSVADLSKPQRIMDIAKKNGLNLKDKKVKNIQE
Consider B1, for which the binding result in test [1] and in test [2] was “binds” each time.

B2: Bacillus subtilis DivIC (BACTH fusion) (protein, UniProt P37471 1-125)
chain: MNFSRERTITEIQNDYKEQVERQNQLKKRRRKGLYRRLTVFGALVFLTAIVLASSVWSQTSSLSAKEEKKEQLEKELKSLKTKQTDLKEEISKLKDEDYVTELARRDLFMSGDGEIIFNVEKKSK
B2: the binding entry in test [2] is on record as “no binding”.

B3: DivIB-FLAG (protein, UniProt P16655 1-263)
chain: MNPGQDREKIVNIEERIPKIKEQRKQKANRRLISFIMLFFIMVLIIVYLQTPISKVSTISVTGNENVSKKEIIDLSDINSGDTEFWSLDKQKTEKKIQQNKLVKKAEISKSLPNKINIAIEEYKAIAYLEKDDVYYEVLENGSVLPNEVTPDDAGPILVNWTNAKKRSQMAKQLDALSNSLKQSISEIYYTPVKMDENRIKLYMNDGYVVTASIKTFADRMKTYPSIISQLSSNKKGIIHLEVATYFEEFGKNDKAAKKEDEN
For B3, the binding entry in test [3] is listed as “binds”.

B4: Bacillus subtilis DivIB (BACTH fusion) (protein, UniProt P16655 1-263)
chain: B3 chain
Consider B4, for which the binding result in test [1] and in test [2] was “binds” throughout.

Values taken from paper doi:10.1101/713677.
